In PMC5261017:

Target: T1, Heme oxygenase 1 (recombinant FLAGHO-1) (human) (UniProt P09601)
T1 sequence: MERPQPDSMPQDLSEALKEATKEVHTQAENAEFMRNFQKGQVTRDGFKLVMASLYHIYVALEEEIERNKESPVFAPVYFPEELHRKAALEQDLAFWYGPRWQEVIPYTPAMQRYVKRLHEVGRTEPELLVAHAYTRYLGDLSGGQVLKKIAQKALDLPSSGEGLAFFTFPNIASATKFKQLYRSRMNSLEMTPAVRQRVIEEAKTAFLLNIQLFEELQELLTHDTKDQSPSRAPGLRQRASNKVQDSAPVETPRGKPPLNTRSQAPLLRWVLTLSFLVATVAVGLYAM
Assay: affinity purification with mass spectrometry; PC3 cells transiently transfected with FLAGHO-1 or empty FLAG vector and treated with H2O2 (200 uM); extract in 20 mM Tris, 150 mM NaCl, 5 mM MgCl2, 0.5% NP40, pH 7.5; Flag magnetic beads 2 h at 4 °C; eluted with 3XFLAG peptide; trypsin digest, LC-ESI MS/MS; only proteins differential against the empty FLAG vector were kept

B2: Nitric oxide-associated protein (protein, UniProt Q8NC60 1-698)
chain: MLPARLPFRLLSLFLRGSAPTAARHGLREPLLERRCAAASSFQHSSSLGRELPYDPVDTEGFGEGGDMQERFLFPEYILDPEPQPTREKQLQELQQQQEEEERQRQQRREERRQQNLRARSREHPVVGHPDPALPPSGVNCSGCGAELHCQDAGVPGYLPREKFLRTAEADGGLARTVCQRCWLLSHHRRALRLQVSREQYLELVSAALRRPGPSLVLYMVDLLDLPDALLPDLPALVGPKQLIVLGNKVDLLPQDAPGYRQRLRERLWEDCARAGLLLAPGHQGPQRPVKDEPQDGENPNPPNWSRTVVRDVRLISAKTGYGVEELISALQRSWRYRGDVYLVGATNAGKSTLFNTLLESDYCTAKGSEAIDRATISPWPGTTLNLLKFPICNPTPYRMFKRHQRLKKDSTQAEEDLSEQEQNQLNVLKKHGYVVGRVGRTFLYSEEQKDNIPFEFDADSLAFDMENDPVMGTHKSTKQVELTAQDVKDAHWFYDTPGITKENCILNLLTEKEVNIVLPTQSIVPRTFVLKPGMVLFLGAIGRIDFLQGNQSAWFTVVASNILPVHITSLDRADALYQKHAGHTLLQIPMGGKERMAGFPPLVAEDIMLKEGLGASEAVADIKFSSAGWVSVTPNFKDRLHLRGYTPEGTVLTVRPPLLPYIVNIKGQRIKKSVAYKTKKPPSLMYNVRKKKGKINV
binding: binds

B3: K-Cl co-transporter KCC4 (protein, UniProt Q9Y666 1-1083)
chain: MPTNFTVVPVEAHADGGGDETAERTEAPGTPEGPEPERPSPGDGNPRENSPFLNNVEVEQESFFEGKNMALFEEEMDSNPMVSSLLNKLANYTNLSQGVVEHEEDEESRRREAKAPRMGTFIGVYLPCLQNILGVILFLRLTWIVGVAGVLESFLIVAMCCTCTMLTAISMSAIATNGVVPAGGSYYMISRSLGPEFGGAVGLCFYLGTTFAGAMYILGTIEIFLTYISPGAAIFQAEAAGGEAAAMLHNMRVYGTCTLVLMALVVFVGVKYVNKLALVFLACVVLSILAIYAGVIKSAFDPPDIPVCLLGNRTLSRRSFDACVKAYGIHNNSATSALWGLFCNGSQPSAACDEYFIQNNVTEIQGIPGAASGVFLENLWSTYAHAGAFVEKKGVPSVPVAEESRASALPYVLTDIAASFTLLVGIYFPSVTGIMAGSNRSGDLKDAQKSIPTGTILAIVTTSFIYLSCIVLFGACIEGVVLRDKFGEALQGNLVIGMLAWPSPWVIVIGSFFSTCGAGLQSLTGAPRLLQAIARDGIVPFLQVFGHGKANGEPTWALLLTVLICETGILIASLDSVAPILSMFFLMCYLFVNLACAVQTLLRTPNWRPRFKFYHWTLSFLGMSLCLALMFICSWYYALSAMLIAGCIYKYIEYRGAEKEWGDGIRGLSLNAARYALLRVEHGPPHTKNWRPQVLVMLNLDAEQAVKHPRLLSFTSQLKAGKGLTIVGSVLEGTYLDKHMEAQRAEENIRSLMSTEKTKGFCQLVVSSSLRDGMSHLIQSAGLGGLKHNTVLMAWPASWKQEDNPFSWKNFVDTVRDTTAAHQALLVAKNVDSFPQNQERFGGGHIDVWWIVHDGGMLMLLPFLLRQHKVWRKCRMRIFTVAQVDDNSIQMKKDLQMFLYHLRISAEVEVVEMVENDISAFTYERTLMMEQRSQMLKQMQLSKNEQEREAQLIHDRNTASHTAAAARTQAPPTPDKVQMTWTREKLIAEKYRSRDTSLSGFKDLFSMKPDQSNVRRMHTAVKLNGVVLNKSQDAQLVLLNMPGPPKNRQGDENYMEFLEVLTEGLNRVLLVRGGGREVITIYS
binding: binds

B4: Interferon-induced Mx protein (protein, UniProt P20591-1 1-662)
chain: MVVSEVDIAKADPAAASHPLLLNGDATVAQKNPGSVAENNLCSQYEEKVRPCIDLIDSLRALGVEQDLALPAIAVIGDQSSGKSSVLEALSGVALPRGSGIVTRCPLVLKLKKLVNEDKWRGKVSYQDYEIEISDASEVEKEINKAQNAIAGEGMGISHELITLEISSRDVPDLTLIDLPGITRVAVGNQPADIGYKIKTLIKKYIQRQETISLVVVPSNVDIATTEALSMAQEVDPEGDRTIGILTKPDLVDKGTEDKVVDVVRNLVFHLKKGYMIVKCRGQQEIQDQLSLSEALQREKIFFENHPYFRDLLEEGKATVPCLAEKLTSELITHICKSLPLLENQIKETHQRITEELQKYGVDIPEDENEKMFFLIDKVNAFNQDITALMQGEETVGEEDIRLFTRLRHEFHKWSTIIENNFQEGHKILSRKIQKFENQYRGRELPGFVNYRTFETIVKQQIKALEEPAVDMLHTVTDMVRLAFTDVSIKNFEEFFNLHRTAKSKIEDIRAEQEREGEKLIRLHFQMEQIVYCQDQVYRGALQKVREKELEEEKKKKSWDFGAFQSSSATDSSMEEIFQHLMAYHQEASKRISSHIPLIIQFFMLQTYGQQLQKAMLQLLQDKDTYSWLLKERSDTSDKRKFLKERLARLTQARRRLAQFPG
binding: binds

B8: Isoform 4 of Spastin (protein, UniProt Q9UBP0-4 1-498)
chain: MAAKRSSGAAPAPASASAPAPVPGGEAERVRVFHKQAFEYISIALRIDEDEKAGQKEQAVEWYKKGIEELEKGIAVIVTGQGEQCERARRLQAKMMTNLVMAKDRLQLLESGAVPKRKDPLTHTSNSLPRSKTVMKTGSAGLSGHHRAPSYSGLSMVSGVKQGSGPAPTTHKGTPKTNRTNKPSTPTTATRKKKDLKNFRNVDSNLANLIMNEIVDNGTAVKFDDIAGQDLAKQALQEIVILPSLRPELFTGLRAPARGLLLFGPPGNGKTMLAKAVAAESNATFFNISAASLTSKYVGEGEKLVRALFAVARELQPSIIFIDEVDSLLCERREGEHDASRRLKTEFLIEFDGVQSAGDDRVLVMGATNRPQELDEAVLRRFIKRVYVSLPNEETRLLLLKNLLCKQGSPLTQKELAQLARMTDGYSGSDLTALAKDAALGPIRELKPEQVKNMSASEMRNIRLSDFTESLKKIKRSVSPQTLEAYIRWNKDFGDTTV
binding: binds

The remaining lines, values ahead:

binding: binds
B1: Purine-rich element binding protein A (protein, UniProt Q00577 1-322)
chain: MADRDSGSEQGGAALGSGGSLGHPGSGSGSGGGGGGGGGGGGSGGGGGGAPGGLQHETQELASKRVDIQNKRFYLDVKQNAKGRFLKIAEVGAGGNKSRLTLSMSVAVEFRDYLGDFIEHYAQLGPSQPPDLAQAQDEPRRALKSEFLVRENRKYYMDLKENQRGRFLRIRQTVNRGPGLGSTQGQTIALPAQGLIEFRDALAKLIDDYGVEEEPAELPEGTSLTVDNKRFFFDVGSNKYGVFMRVSEVKPTYRNSITVPYKVWAKFGHTFCKYSEEMKKIQEKQREKRAACEQLHQQQQQQQEETAAATLLLQGEEEGEED

binding: binds
B5: Spermatogenesis-associated protein 7 (protein, UniProt Q9P0W8 1-599)
chain: MDGSRRVRATSVLPRYGPPCLFKGHLSTKSNAFCTDSSSLRLSTLQLVKNHMAVHYNKILSAKAAVDCSVPVSVSTSIKYADQQRREKLKKELAQCEKEFKLTKTAMRANYKNNSKSLFNTLQKPSGEPQIEDDMLKEEMNGFSSFARSLVPSSERLHLSLHKSSKVITNGPEKNSSSSPSSVDYAASGPRKLSSGALYGRRPRSTFPNSHRFQLVISKAPSGDLLDKHSELFSNKQLPFTPRTLKTEAKSFLSQYRYYTPAKRKKDFTDQRIEAETQTELSFKSELGTAETKNMTDSEMNIKQASNCVTYDAKEKIAPLPLEGHDSTWDEIKDDALQHSSPRAMCQYSLKPPSTRKIYSDEEELLYLSFIEDVTDEILKLGLFSNRFLERLFERHIKQNKHLEEEKMRHLLHVLKVDLGCTSEENSVKQNDVDMLNVFDFEKAGNSEPNELKNESEVTIQQERQQYQKALDMLLSAPKDENEIFPSPTEFFMPIYKSKHSEGVIIQQVNDETNLETSTLDENHPSISDSLTDRETSVNVIEGDSDPEKVEISNGLCGLNTSPSQSVQFSSVKGDNNHDMELSTLKIMEMSIEDCPLDV

binding: binds
B6: Retinoic acid-induced 14 (protein, UniProt Q9P0K7-1 1-980)
chain: MKSLKAKFRKSDTNEWNKNDDRLLQAVENGDAEKVASLLGKKGASATKHDSEGKTAFHLAAAKGHVECLRVMITHGVDVTAQDTTGHSALHLAAKNSHHECIRKLLQSKCPAESVDSSGKTALHYAAAQGCLQAVQILCEHKSPINLKDLDGNIPLLLAVQNGHSEICHFLLDHGADVNSRNKSGRTALMLACEIGSSNAVEALIKKGADLNLVDSLGYNALHYSKLSENAGIQSLLLSKISQDADLKTPTKPKQHDQVSKISSERSGTPKKRKAPPPPISPTQLSDVSSPRSITSTPLSGKESVFFAEPPFKAEISSIRENKDRLSDSTTGADSLLDISSEADQQDLLSLLQAKVASLTLHNKELQDKLQAKSPKEAEADLSFDSYHSTQTDLGPSLGKPGETSPPDSKSSPSVLIHSLGKSTTDNDVRIQQLQEILQDLQKRLESSEAERKQLQVELQSRRAELVCLNNTEISENSSDLSQKLKETQSKYEEAMKEVLSVQKQMKLGLVSPESMDNYSHFHELRVTEEEINVLKQDLQNALEESERNKEKVRELEEKLVEREKGTVIKPPVEEYEEMKSSYCSVIENMNKEKAFLFEKYQEAQEEIMKLKDTLKSQMTQEASDEAEDMKEAMNRMIDELNKQVSELSQLYKEAQAELEDYRKRKSLEDVTAEYIHKAEHEKLMQLTNVSRAKAEDALSEMKSQYSKVLNELTQLKQLVDAQKENSVSITEHLQVITTLRTAAKEMEEKISNLKEHLASKEVEVAKLEKQLLEEKAAMTDAMVPRSSYEKLQSSLESEVSVLASKLKESVKEKEKVHSEVVQIRSEVSQVKREKENIQTLLKSKEQEVNELLQKFQQAQEELAEMKRYAESSSKLEEDKDKKINEMSKEVTKLKEALNSLSQLSYSTSSSKRQSQQLEALQQQVKQLQNQLAECKKQHQEVISVYRMHLLYAVQGQMDEDVQKVLKQILTMCKNQSQKK

binding: binds
B7: Splicing factor, arginine/serine-rich 3 (protein, UniProt P84103 1-164)
chain: MHRDSCPLDCKVYVGNLGNNGNKTELERAFGYYGPLRSVWVARNPPGFAFVEFEDPRDAADAVRELDGRTLCGCRVRVELSNGEKRSRNRGPPPSWGRRPRDDYRRRSPPPRRRSPRRRSFSRSRSRSLSRDRRRERSLSRERNHKPSRSFSRSRSRSRSNERK

binding: binds
B9: Peroxiredoxin 2 (protein, UniProt P32119 1-198)
chain: MASGNARIGKPAPDFKATAVVDGAFKEVKLSDYKGKYVVLFFYPLDFTFVCPTEIIAFSNRAEDFRKLGCEVLGVSVDSQFTHLAWINTPRKEGGLGPLNIPLLADVTRRLSEDYGVLKTDEGIAYRGLFIIDGKGVLRQITVNDLPVGRSVDEALRLVQAFQYTDEHGEVCPAGWKPGSDTIKPNVDDSKEYFSKHN

Results are given in words; binding and its absence hold for the method and conditions named. Binding seen in cells or lysates may run through a third protein. A yes stands for co-enrichment or nearness to the bait. Other partners may have been found. Sequences can lack the tags named with a protein. Each block holds one binder with its values, some of them ahead of it.
